No constants are given. Whether binding was seen depends on the method and setting. In cells and extracts the contact can be indirect. Some results given as binding are weak or reduced against the parent protein; the word gives no strength. For some assays here: Where a sequence is shown, tags or fusion partners need not be part of it.
T1: GST-RanBP6 fusion protein (human) (UniProt O60518)
T1 sequence: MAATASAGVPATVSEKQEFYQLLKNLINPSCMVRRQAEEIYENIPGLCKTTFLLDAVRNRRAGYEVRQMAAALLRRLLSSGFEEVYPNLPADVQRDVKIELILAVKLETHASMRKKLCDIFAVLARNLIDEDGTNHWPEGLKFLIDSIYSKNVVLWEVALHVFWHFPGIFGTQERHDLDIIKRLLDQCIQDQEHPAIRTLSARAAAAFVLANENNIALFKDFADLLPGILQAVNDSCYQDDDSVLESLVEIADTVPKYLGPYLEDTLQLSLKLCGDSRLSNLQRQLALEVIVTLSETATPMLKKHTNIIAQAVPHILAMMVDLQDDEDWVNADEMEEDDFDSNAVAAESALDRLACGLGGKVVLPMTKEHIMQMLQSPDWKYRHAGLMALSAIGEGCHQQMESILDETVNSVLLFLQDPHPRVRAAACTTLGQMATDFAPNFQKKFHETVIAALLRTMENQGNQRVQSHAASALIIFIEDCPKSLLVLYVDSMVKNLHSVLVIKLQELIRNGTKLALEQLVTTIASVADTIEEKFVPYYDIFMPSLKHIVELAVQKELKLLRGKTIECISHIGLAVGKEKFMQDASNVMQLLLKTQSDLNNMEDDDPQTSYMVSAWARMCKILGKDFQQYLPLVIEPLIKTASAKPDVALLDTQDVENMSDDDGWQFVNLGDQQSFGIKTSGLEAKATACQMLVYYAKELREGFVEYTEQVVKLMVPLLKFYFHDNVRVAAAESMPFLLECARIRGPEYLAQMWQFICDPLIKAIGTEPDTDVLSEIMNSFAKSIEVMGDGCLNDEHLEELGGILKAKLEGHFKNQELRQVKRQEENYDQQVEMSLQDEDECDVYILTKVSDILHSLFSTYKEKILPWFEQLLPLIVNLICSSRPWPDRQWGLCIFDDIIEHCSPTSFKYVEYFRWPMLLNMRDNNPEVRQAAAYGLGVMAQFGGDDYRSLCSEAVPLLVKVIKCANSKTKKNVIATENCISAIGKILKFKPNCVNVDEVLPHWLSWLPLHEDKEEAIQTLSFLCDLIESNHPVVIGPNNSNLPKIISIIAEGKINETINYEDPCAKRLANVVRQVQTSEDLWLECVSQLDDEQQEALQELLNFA

Chains of the proteins cited; added tags and fusions are not shown.
UniProt P40763: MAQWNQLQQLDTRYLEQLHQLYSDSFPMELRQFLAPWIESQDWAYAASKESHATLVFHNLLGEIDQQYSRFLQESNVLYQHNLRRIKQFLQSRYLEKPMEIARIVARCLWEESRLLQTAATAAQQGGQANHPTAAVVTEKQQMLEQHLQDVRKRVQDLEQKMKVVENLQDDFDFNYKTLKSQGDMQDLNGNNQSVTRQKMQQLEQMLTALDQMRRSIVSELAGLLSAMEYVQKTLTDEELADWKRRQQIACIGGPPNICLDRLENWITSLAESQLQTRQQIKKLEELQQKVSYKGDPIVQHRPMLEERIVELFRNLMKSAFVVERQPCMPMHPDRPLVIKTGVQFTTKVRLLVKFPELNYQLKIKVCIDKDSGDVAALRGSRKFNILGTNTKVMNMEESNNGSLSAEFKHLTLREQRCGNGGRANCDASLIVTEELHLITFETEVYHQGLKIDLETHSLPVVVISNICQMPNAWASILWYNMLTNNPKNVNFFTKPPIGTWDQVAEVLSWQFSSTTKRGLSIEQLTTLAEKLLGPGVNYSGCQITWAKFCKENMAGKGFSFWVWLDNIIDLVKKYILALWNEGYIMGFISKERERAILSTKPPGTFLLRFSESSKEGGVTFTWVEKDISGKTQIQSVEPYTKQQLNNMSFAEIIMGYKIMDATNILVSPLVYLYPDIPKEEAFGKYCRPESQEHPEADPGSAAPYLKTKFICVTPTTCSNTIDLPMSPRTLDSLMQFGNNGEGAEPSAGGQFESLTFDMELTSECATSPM


Columns and labels:
[1] = target: T1, GST-RanBP6 fusion protein (human); assay: pull-down; about 25 μg GST-RanBP6 beads incubated with 500 μg HEK-293T whole-cell lysate for 2-4 h in the cold; cells serum starved 12 h and stimulated with EGF (100 ng/ml) or grown in full media; for EGFR also pretreatment with the AKT inhibitor MK-2206 (EGF reduced the association, MK-2206 rescued it); immunoblot; only the target purified
[2] = target: epidermal growth factor receptor (EGFR) (human (endogenous in HEK-293T and LN18)) (UniProt P00533); assay: co-IP; immunoprecipitation of endogenous EGFR from lysates of HEK-293T and LN18 cells with Dox-induced RanBP6-V5 (- and + Dox); blot with V5 and EGFR antibodies
[3] = target: epidermal growth factor receptor (EGFR) (human (endogenous in A431, HEK-293T, LN18)) (UniProt P00533); assay: co-IP; immunoprecipitation of endogenous EGFR from HEK-293T and LN18 cells, RanBP6 detected

Molecule	binding [1]	other results
V5 epitope tagged RanBP6-V5 (Ran-binding protein 6) (protein, UniProt O60518 1-1105) MAATASAGVPATVSEKQEFYQLLKNLINPSCMVRRQAEEIYENIPGLCKTTFLLDAVRNRRAGYEVRQMAAALLRRLLSSGFEEVYPNLPADVQRDVKIELILAVKLETHASMRKKLCDIFAVLARNLIDEDGTNHWPEGLKFLIDSIYSKNVVLWEVALHVFWHFPGIFGTQERHDLDIIKRLLDQCIQDQEHPAIRTLSARAAAAFVLANENNIALFKDFADLLPGILQAVNDSCYQDDDSVLESLVEIADTVPKYLGPYLEDTLQLSLKLCGDSRLSNLQRQLALEVIVTLSETATPMLKKHTNIIAQAVPHILAMMVDLQDDEDWVNADEMEEDDFDSNAVAAESALDRLACGLGGKVVLPMTKEHIMQMLQSPDWKYRHAGLMALSAIGEGCHQQMESILDETVNSVLLFLQDPHPRVRAAACTTLGQMATDFAPNFQKKFHETVIAALLRTMENQGNQRVQSHAASALIIFIEDCPKSLLVLYVDSMVKNLHSVLVIKLQELIRNGTKLALEQLVTTIASVADTIEEKFVPYYDIFMPSLKHIVELAVQKELKLLRGKTIECISHIGLAVGKEKFMQDASNVMQLLLKTQSDLNNMEDDDPQTSYMVSAWARMCKILGKDFQQYLPLVIEPLIKTASAKPDVALLDTQDVENMSDDDGWQFVNLGDQQSFGIKTSGLEAKATACQMLVYYAKELREGFVEYTEQVVKLMVPLLKFYFHDNVRVAAAESMPFLLECARIRGPEYLAQMWQFICDPLIKAIGTEPDTDVLSEIMNSFAKSIEVMGDGCLNDEHLEELGGILKAKLEGHFKNQELRQVKRQEENYDQQVEMSLQDEDECDVYILTKVSDILHSLFSTYKEKILPWFEQLLPLIVNLICSSRPWPDRQWGLCIFDDIIEHCSPTSFKYVEYFRWPMLLNMRDNNPEVRQAAAYGLGVMAQFGGDDYRSLCSEAVPLLVKVIKCANSKTKKNVIATENCISAIGKILKFKPNCVNVDEVLPHWLSWLPLHEDKEEAIQTLSFLCDLIESNHPVVIGPNNSNLPKIISIIAEGKINETINYEDPCAKRLANVVRQVQTSEDLWLECVSQLDDEQQEALQELLNFA	–	binding [2]: binds
Ran-binding protein 6 (RanBP6), endogenous (protein, UniProt O60518 1-1105) MAATASAGVPATVSEKQEFYQLLKNLINPSCMVRRQAEEIYENIPGLCKTTFLLDAVRNRRAGYEVRQMAAALLRRLLSSGFEEVYPNLPADVQRDVKIELILAVKLETHASMRKKLCDIFAVLARNLIDEDGTNHWPEGLKFLIDSIYSKNVVLWEVALHVFWHFPGIFGTQERHDLDIIKRLLDQCIQDQEHPAIRTLSARAAAAFVLANENNIALFKDFADLLPGILQAVNDSCYQDDDSVLESLVEIADTVPKYLGPYLEDTLQLSLKLCGDSRLSNLQRQLALEVIVTLSETATPMLKKHTNIIAQAVPHILAMMVDLQDDEDWVNADEMEEDDFDSNAVAAESALDRLACGLGGKVVLPMTKEHIMQMLQSPDWKYRHAGLMALSAIGEGCHQQMESILDETVNSVLLFLQDPHPRVRAAACTTLGQMATDFAPNFQKKFHETVIAALLRTMENQGNQRVQSHAASALIIFIEDCPKSLLVLYVDSMVKNLHSVLVIKLQELIRNGTKLALEQLVTTIASVADTIEEKFVPYYDIFMPSLKHIVELAVQKELKLLRGKTIECISHIGLAVGKEKFMQDASNVMQLLLKTQSDLNNMEDDDPQTSYMVSAWARMCKILGKDFQQYLPLVIEPLIKTASAKPDVALLDTQDVENMSDDDGWQFVNLGDQQSFGIKTSGLEAKATACQMLVYYAKELREGFVEYTEQVVKLMVPLLKFYFHDNVRVAAAESMPFLLECARIRGPEYLAQMWQFICDPLIKAIGTEPDTDVLSEIMNSFAKSIEVMGDGCLNDEHLEELGGILKAKLEGHFKNQELRQVKRQEENYDQQVEMSLQDEDECDVYILTKVSDILHSLFSTYKEKILPWFEQLLPLIVNLICSSRPWPDRQWGLCIFDDIIEHCSPTSFKYVEYFRWPMLLNMRDNNPEVRQAAAYGLGVMAQFGGDDYRSLCSEAVPLLVKVIKCANSKTKKNVIATENCISAIGKILKFKPNCVNVDEVLPHWLSWLPLHEDKEEAIQTLSFLCDLIESNHPVVIGPNNSNLPKIISIIAEGKINETINYEDPCAKRLANVVRQVQTSEDLWLECVSQLDDEQQEALQELLNFA	–	binding [3]: binds
nuclear pore complex protein Nup93 (protein, UniProt Q8N1F7 1-819) MDTEGFGELLQQAEQLAAETEGISELPHVERNLQEIQQAGERLRSRTLTRTSQETADVKASVLLGSRGLDISHISQRLESLSAATTFEPLEPVKDTDIQGFLKNEKDNALLSAIEESRKRTFGMAEEYHRESMLVEWEQVKQRILHTLLASGEDALDFTQESEPSYISDVGPPGRSSLDNIEMAYARQIYIYNEKIVNGHLQPNLVDLCASVAELDDKSISDMWTMVKQMTDVLLTPATDALKNRSSVEVRMEFVRQALAYLEQSYKNYTLVTVFGNLHQAQLGGVPGTYQLVRSFLNIKLPAPLPGLQDGEVEGHPVWALIYYCMRCGDLLAASQVVNRAQHQLGEFKTWFQEYMNSKDRRLSPATENKLRLHYRRALRNNTDPYKRAVYCIIGRCDVTDNQSEVADKTEDYLWLKLNQVCFDDDGTSSPQDRLTLSQFQKQLLEDYGESHFTVNQQPFLYFQVLFLTAQFEAAVAFLFRMERLRCHAVHVALVLFELKLLLKSSGQSAQLLSHEPGDPPCLRRLNFVRLLMLYTRKFESTDPREALQYFYFLRDEKDSQGENMFLRCVSELVIESREFDMILGKLENDGSRKPGVIDKFTSDTKPIINKVASVAENKGLFEEAAKLYDLAKNADKVLELMNKLLSPVVPQISAPQSNKERLKNMALSIAERYRAQGISANKFVDSTFYLLLDLITFFDEYHSGHIDRAFDIIERLKLVPLNQESVEERVAAFRNFSDEIRHNLSEVLLATMNILFTQFKRLKGTSPSSSSRPQRVIEDRDSQLRSQARTLITFAGMIPYRTSGDTNARLVQMEVLMN	binds	–

Further lines, with some results ahead:

binding [1]	Molecule	other results
binds	phosphorylated STAT3 (tyrosine 705) (from UniProt P40763 1-770)	–
binds	signal transducer and activator of transcription 3 (STAT3) (from UniProt P40763 1-770)	–
